Our source for the binding values is PMC8223750.

No constants are given. Whether binding was seen depends on the method and setting. Binding seen in cells or lysates may run through a third protein. Binding can be weak; no strength is given.

The experiment deals with mitochondrial antiviral signalling (MAVS) protein (cattle (endogenous in bovine bladder mucosa)). In words: co-IP; 1 mg total protein extract (RIPA buffer) of healthy and diseased bovine bladder; anti-MAVS antibody, Protein A/G-Plus Agarose overnight at 4°C, four washes in lysis buffer; Western blot of the immunoprecipitates. Background: In western blotting, separated proteins are transferred to a membrane and probed.

B1: Sec13 (protein, UniProt Q3ZCC9 1-322)
chain: MVSVINTVDTSHEDMIHDAQMDYYGTRLATCSSDRSVKIFDVRNGGQILVADLRGHEGPVWQVAWAHPMYGNILASCSYDRKVIIWKEENGTWEKTHEHTGHDSSVNSVCWAPHDYGLILACGSSDGAISLLTYTGLGQWEVKKINNAHTIGCNAVSWAPAVVPGSLIDQPSGQKPNYIKKFASGGCDNLIKLWKEEEDGQWKEEQKLEAHSDWVRDVAWAPSIGLPTSTIASCSQDGRVFVWTCDDASGNTWSPKLLHKFNDVVWHVSWSITANILAVSGGDNKVTLWKESVDGQWVCISDVNKGQGPVSTSVTEGQQNDQ
In the case of B1, the binding result is reported as “binds”.
